Measurements taken from patent US20090136977A1, “NOVEL TARGETS FOR ALZHEIMER'S DISEASE” (priority 2007, published 2009).
No constants are given. Whether binding was seen depends on the method and setting. For part of these data: Binding can be weak; no strength is given. Where a sequence is shown, tags or fusion partners need not be part of it. For part of these data: Binding seen in cells or lysates may run through a third protein.

Chains of the proteins cited; added tags and fusions are not shown. Lines headed by an entry give the natural chain unless they say otherwise; changes in a name come on top.
UniProt P56817: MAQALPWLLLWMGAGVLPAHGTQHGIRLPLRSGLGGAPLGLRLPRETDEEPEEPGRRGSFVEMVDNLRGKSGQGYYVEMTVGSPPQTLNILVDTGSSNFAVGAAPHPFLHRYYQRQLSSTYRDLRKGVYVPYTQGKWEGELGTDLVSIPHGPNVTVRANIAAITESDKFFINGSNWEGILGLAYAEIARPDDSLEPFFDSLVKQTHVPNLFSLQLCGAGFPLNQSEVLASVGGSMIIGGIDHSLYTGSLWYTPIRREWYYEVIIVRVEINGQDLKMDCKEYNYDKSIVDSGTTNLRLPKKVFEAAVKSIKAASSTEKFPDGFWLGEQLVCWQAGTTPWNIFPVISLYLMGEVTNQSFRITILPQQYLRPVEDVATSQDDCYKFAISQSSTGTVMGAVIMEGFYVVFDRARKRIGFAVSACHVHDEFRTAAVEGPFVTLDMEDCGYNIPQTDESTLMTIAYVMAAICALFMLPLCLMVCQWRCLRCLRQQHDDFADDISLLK

B1: ATase1 (acetyltransferase 1) with a myc tag at the C-terminus (enzyme, not shown: small tags and cut ends)
chain: MAPYHIRKYQESDRKSVVGLLSRGMAEHAPATFRRLLKLPRTLILLLGGALALLLVSGSWILALVFSLSLLPALWFLAKKPWTRYVDIALRTDMSDITKSYLSECGSCFWVGESEEKVVGTVGALPVDDPTLREKRLQLFHLSVDNEHRGQGIAKALVRTVLQFARDQGYSEVVLDTSNIQLSAMGLYQSLGFKKTGQSFFHVWARLVDLHTVHFIYHLPSAQAGRL
B2: ATase2 (acetyltransferase 2) with a myc tag at the C-terminus (enzyme, not shown: small tags and cut ends)
chain: MAPCHIRKYQESDRQWVVGLLSRGMAEHAPATFRQLLKLPRTLILLLGGPLALLLVSGSWLLALVFSISLFPALWFLAKKPWTEYVDMTLCTDMSDITKSYLSERGSCFWVAESEEKVVGMVGALPVDDPTLREKRLQLFHLFVDSEHRRQGIAKALVRTVLQFARDQGYSEVILDTGTIQLSAMALYQSMGFKKTGQSFFCVWARLVALHTVHFIYHLPSSKVGSL

What was measured:
[1] = target: affinity purified BACE1 (BACE1-myc, wild type) (UniProt P56817); assay: co-immunoprecipitation after co-incubation of the purified proteins in vitro (FIG. 3B)
[2] = target: endogenous BACE1, mature fully-glycosylated form (form 3); assay: anti-myc affinity purification of ATase1-myc from cell lysates, Western blot with anti-BACE1 (FIG. 6A)
[3] = target: affinity purified BACE1 (BACE1-myc, wild type) (UniProt P56817); assay: co-incubation of the purified proteins, immunoprecipitation of BACE1 with an anti-BACE1 N-terminal antibody, Western blot (FIG. 3B)
[4] = target: affinity purified BACE1 (BACE1-myc, wild type) (UniProt P56817); assay: co-immunoprecipitation after co-incubation of the purified proteins in vitro (FIG. 5A)
[5] = target: endogenous BACE1, mature fully-glycosylated form (form 3); assay: anti-myc affinity purification of ATase2-myc from cell lysates, Western blot with anti-BACE1 (FIG. 6A)
[6] = target: affinity purified BACE1 (BACE1-myc, wild type) (UniProt P56817); assay: co-incubation of the purified proteins, immunoprecipitation of BACE1 with an anti-BACE1 N-terminal antibody, Western blot with anti-myc (FIG. 5A)

binding [1] | binding [2] | binding [3] | binding [4] | binding [5] | binding [6] | Binder
binds | no binding | binds |  |  |  | B1
 |  |  | binds | no binding | binds | B2
